What follows are molecules tested on MenB antigens 287-953, 936-741 and 961c (assay: SDS-PAGE of MenB antigen binding to compound-modified aluminum hydroxide adjuvant). Details: compound-modified alum, Compound:Alum 1:6 weight ratio, pH 6.5; antigens 287-953, 936-741, 961c.
Design: species or system Neisseria meningitis
`Cc1ccc2c(c1)nc(N)c1ncc(CCc3ccc(OCCCP(=O)(O)O)cc3C)cc12` [Compound 1, 3-(4-(2-(5-amino-8-methylbenzo[f][1,7]naphthyridin-2-yl)ethyl)-3-methylphenoxy)propylphosphonic acid] was tested, and the “binding of MenB antigens to aluminum hydroxide adjuvant in presence of bound compound (SDS-PAGE)” value (“binding … of bound compound (SDS-PAGE)” below) was “as effectively”.
`Cc1cc(OCCCC(F)(F)P(=O)(O)O)ccc1CCc1cnc2c(N)nc3cc(CCC(=O)O)ccc3c2c1` [Compound 16, 3-(5-amino-2-(4-(4,4-difluoro-4-phosphonobutoxy)-2-methylphenethyl)benzo[f][1,7]naphthyridin-8-yl)propanoic acid] was tested, and the “binding … of bound compound (SDS-PAGE)” value was “completely adsorbed”.
`Cc1cc(OCCOCCOCCC(F)(F)P(=O)(O)O)ccc1CCc1cnc2c(N)nc3cc(CCC(=O)O)ccc3c2c1` [Compound 17, 3-(5-amino-2-(4-(2-(2-(3,3-difluoro-3-phosphonopropoxy)ethoxy)ethoxy)-2-methylphenethyl)benzo[f][1,7]naphthyridin-8-yl)propanoic acid] was tested, and the “binding … of bound compound (SDS-PAGE)” value was “completely adsorbed”.

Source: US9950062B2, “Compounds and compositions as TLR activity modulators” (priority 2009, dated 2018)
